Data taken from the supplement of paper PMC10849652.
The list shows a part of the results.

Protein sequences, listed by entry. Tags and fused reporters are not part of them. Lines headed by an entry give the natural chain unless they say otherwise; changes in a name come on top.
UniProt Q13045: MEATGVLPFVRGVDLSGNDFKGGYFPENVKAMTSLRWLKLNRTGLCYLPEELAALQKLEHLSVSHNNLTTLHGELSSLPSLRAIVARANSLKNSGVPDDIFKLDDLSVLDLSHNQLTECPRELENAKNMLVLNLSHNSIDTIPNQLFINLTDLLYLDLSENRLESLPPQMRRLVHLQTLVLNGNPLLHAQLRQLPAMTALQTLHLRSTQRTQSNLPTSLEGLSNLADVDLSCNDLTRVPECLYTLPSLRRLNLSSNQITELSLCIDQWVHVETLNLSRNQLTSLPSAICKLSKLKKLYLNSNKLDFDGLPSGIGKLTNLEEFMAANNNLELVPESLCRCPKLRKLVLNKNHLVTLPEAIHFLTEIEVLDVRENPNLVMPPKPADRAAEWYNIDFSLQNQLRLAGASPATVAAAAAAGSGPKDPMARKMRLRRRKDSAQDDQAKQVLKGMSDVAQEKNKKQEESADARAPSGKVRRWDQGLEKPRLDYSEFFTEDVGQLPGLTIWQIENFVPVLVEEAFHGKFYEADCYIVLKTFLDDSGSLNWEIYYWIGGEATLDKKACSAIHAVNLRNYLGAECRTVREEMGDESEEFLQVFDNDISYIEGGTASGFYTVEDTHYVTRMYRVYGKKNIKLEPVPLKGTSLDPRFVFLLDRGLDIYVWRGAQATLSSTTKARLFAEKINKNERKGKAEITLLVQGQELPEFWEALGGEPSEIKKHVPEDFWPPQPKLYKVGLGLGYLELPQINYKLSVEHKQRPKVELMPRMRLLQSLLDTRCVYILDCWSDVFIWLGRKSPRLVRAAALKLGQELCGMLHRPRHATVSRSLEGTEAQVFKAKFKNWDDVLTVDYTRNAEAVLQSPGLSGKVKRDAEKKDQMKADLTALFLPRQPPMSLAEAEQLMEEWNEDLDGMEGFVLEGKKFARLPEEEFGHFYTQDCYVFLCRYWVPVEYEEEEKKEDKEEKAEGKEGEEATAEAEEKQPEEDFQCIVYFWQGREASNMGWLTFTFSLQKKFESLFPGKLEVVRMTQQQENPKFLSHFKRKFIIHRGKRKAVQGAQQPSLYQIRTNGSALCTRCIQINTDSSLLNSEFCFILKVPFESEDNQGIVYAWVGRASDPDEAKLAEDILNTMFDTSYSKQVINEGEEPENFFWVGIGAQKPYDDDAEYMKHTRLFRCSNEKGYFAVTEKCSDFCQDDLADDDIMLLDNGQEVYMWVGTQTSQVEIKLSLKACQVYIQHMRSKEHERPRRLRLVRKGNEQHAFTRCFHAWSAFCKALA
UniProt Q96CP2: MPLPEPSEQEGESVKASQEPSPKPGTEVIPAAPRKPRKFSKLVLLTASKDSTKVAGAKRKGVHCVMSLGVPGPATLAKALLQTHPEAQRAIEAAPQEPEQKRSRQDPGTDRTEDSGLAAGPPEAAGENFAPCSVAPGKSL
UniProt Q9H479: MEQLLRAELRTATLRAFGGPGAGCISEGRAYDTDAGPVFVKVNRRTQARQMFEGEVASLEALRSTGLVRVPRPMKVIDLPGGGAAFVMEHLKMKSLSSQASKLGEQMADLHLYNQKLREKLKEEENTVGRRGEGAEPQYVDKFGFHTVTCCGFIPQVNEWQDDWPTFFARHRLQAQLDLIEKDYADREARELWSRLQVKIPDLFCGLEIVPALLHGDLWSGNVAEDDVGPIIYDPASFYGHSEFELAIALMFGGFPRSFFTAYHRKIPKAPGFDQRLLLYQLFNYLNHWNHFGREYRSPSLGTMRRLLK
UniProt Q92520: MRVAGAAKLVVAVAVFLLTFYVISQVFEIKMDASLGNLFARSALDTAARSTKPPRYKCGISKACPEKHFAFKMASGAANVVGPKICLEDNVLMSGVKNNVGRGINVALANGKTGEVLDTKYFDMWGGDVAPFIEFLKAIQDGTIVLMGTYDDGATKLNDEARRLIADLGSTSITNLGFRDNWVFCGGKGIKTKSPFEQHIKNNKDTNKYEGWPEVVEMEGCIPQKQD
UniProt Q8NFF5: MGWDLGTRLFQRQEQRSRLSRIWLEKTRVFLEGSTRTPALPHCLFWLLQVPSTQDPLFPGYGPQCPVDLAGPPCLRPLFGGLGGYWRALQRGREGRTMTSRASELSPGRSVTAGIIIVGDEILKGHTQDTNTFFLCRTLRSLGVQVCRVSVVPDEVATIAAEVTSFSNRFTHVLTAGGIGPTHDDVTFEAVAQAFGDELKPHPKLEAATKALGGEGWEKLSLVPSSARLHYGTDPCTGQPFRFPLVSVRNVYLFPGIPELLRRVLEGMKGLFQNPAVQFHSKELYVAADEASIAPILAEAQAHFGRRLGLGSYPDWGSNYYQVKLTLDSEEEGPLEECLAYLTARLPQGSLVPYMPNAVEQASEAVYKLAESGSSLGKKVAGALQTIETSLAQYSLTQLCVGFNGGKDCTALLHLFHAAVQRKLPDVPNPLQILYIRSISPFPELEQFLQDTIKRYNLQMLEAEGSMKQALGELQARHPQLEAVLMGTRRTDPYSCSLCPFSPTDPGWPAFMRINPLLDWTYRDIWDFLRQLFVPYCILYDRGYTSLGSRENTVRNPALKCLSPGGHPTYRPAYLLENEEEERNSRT
UniProt Q9UBU6: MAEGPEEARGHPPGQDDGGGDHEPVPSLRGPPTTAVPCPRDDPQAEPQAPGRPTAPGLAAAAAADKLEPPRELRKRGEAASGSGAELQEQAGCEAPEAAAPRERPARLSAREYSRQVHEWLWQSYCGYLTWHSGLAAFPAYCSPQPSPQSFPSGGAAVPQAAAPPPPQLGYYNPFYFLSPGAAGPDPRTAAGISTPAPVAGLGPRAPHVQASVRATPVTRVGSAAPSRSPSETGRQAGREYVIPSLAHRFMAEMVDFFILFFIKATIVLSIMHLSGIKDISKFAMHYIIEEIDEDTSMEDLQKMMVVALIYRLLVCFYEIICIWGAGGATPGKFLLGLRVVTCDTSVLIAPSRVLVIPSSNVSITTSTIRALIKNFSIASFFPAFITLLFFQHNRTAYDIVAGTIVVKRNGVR
UniProt Q00688: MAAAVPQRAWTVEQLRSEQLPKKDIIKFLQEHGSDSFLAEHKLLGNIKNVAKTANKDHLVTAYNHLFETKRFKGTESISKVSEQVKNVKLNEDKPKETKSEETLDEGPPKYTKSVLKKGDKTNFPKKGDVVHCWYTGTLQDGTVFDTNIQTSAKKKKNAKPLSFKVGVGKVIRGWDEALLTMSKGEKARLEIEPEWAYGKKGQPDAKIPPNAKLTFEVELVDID
UniProt Q96HJ9: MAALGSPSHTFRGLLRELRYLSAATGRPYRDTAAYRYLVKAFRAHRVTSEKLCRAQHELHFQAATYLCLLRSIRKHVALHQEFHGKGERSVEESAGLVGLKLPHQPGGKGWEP
UniProt Q9Y324: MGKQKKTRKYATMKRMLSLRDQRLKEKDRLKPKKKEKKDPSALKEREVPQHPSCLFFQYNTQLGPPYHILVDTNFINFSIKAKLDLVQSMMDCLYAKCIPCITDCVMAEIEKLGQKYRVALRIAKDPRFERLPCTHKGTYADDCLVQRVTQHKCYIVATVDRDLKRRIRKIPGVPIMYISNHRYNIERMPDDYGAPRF
UniProt Q53R41: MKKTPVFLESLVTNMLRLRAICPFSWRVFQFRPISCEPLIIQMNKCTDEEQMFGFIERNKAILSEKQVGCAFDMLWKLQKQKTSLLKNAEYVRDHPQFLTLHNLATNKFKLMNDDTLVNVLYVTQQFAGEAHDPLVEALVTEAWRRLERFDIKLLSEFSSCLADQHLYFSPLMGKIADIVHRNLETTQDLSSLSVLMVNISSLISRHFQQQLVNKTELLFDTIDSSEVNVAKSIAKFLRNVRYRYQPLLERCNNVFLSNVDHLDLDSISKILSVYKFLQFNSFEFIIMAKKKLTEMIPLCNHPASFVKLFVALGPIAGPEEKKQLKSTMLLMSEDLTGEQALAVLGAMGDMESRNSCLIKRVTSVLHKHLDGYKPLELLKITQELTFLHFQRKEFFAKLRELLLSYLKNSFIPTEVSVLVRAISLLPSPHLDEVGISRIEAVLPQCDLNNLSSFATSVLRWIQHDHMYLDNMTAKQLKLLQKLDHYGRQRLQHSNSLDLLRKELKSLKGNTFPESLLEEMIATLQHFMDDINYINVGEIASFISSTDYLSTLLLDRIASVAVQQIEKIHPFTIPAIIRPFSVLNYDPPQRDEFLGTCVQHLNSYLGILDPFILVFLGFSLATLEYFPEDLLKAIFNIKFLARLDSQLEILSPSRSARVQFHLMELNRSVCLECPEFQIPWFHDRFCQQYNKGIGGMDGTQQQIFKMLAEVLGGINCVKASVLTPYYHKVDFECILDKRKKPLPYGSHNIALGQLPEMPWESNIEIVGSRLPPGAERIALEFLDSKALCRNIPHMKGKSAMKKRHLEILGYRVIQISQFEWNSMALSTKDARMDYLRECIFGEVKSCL
UniProt Q96SL8: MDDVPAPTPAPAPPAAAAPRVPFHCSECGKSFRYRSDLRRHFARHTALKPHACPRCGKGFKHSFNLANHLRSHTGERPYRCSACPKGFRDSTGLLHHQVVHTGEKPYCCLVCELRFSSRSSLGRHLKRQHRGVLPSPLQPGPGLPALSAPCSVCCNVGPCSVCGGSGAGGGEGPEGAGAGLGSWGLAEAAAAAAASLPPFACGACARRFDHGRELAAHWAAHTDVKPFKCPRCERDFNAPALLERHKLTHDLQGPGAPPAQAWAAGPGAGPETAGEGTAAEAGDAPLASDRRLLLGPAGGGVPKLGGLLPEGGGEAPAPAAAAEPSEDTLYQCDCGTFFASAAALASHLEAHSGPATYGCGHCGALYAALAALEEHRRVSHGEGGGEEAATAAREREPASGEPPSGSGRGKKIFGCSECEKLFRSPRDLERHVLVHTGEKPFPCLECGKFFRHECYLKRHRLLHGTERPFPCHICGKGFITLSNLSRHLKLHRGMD
UniProt Q8TAV0: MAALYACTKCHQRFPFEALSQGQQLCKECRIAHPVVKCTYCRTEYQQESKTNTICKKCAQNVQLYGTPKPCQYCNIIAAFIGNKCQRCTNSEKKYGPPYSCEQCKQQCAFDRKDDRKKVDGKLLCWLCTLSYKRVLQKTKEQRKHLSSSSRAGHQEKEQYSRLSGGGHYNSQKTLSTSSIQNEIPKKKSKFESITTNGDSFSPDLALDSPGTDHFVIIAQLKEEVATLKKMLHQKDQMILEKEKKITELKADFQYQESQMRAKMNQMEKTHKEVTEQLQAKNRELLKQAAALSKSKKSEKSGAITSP
UniProt Q8N8J7: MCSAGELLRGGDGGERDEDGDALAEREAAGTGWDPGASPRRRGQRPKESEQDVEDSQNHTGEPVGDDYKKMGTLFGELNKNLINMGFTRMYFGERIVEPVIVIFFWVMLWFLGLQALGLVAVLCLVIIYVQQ
UniProt P39748, whole entry, looked up: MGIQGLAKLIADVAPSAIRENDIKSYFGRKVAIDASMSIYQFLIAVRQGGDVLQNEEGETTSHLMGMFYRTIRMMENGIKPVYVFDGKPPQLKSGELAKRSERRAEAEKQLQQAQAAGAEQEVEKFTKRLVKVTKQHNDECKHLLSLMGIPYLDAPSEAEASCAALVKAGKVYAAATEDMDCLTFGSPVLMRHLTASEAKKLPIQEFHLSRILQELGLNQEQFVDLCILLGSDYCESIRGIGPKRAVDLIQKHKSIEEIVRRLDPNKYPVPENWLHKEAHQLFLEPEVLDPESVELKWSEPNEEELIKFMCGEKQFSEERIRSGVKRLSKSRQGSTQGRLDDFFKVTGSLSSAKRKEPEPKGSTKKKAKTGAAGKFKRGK
UniProt Q9NYF3: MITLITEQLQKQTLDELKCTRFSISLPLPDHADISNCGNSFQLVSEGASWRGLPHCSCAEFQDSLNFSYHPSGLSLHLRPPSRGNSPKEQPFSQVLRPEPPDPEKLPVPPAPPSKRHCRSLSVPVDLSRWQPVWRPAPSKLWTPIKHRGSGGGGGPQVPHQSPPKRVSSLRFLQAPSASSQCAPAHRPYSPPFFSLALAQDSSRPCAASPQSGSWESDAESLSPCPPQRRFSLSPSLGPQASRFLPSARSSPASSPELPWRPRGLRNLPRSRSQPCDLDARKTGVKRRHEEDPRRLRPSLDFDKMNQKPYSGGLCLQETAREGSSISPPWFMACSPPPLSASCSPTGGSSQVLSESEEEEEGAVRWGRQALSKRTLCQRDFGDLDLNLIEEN

Key:
Assay in all cases: log2 fold change, soluble protein after heating vs DMSO (PISA); higher = thermal stabilisation; K562 cells, 10 uM, 30 min; active = over 0.2 and 3.5 SD of the protein, either way, in both replicates (recomputed)
[1] = compound: CC[C@@H]1C(=O)N(C)c2cnc(Nc3ccc(C(=O)NC4CCN(C)CC4)cc3OC)nc2N1C1CCCC1
In short: (§1)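 K562 cells (2×10^6 cells/mL) were treated with 10 μM compound for 30 min, and aliquots were heated for 3 min over 48°C-58°C. Pooled aliquots were extracted in PBS with 0.5% NP-40 at 4°C, and the supernatant after 21,000xg for 90 min was measured by TMTpro 16plex LC-MS/MS with channel sums equalised. Reported thermal stability, relative to control samples and from duplicates, is a log2 fold change.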

volasertib = compound: CC[C@@H]1C(=O)N(C)c2cnc(Nc3ccc(C(=O)N[C@H]4CC[C@H](N5CCN(CC6CC6)CC5)CC4)cc3OC)nc2N1C(C)C [volasertib]
In short: as §1

[2] = compound: CC[C@H](C)N1C=C(C2=C(C=C(C=C21)C3=CN=C(C=C3)N4CCNCC4)C(=O)NCC5=C(C=C(NC5=O)C)C)C
In short: as §1

epoxomicin = compound: CC[C@H](C)[C@@H](C(=O)N[C@@H]([C@@H](C)O)C(=O)N[C@@H](CC(C)C)C(=O)[C@]1(CO1)C)NC(=O)[C@H]([C@@H](C)CC)N(C)C(=O)C [epoxomicin]
In short: as §1

[3] = compound: CCn1c(C(=O)N(C2CC2)C2CC2)cc2c3c(ncn3C)c(Nc3cc(C)n(C)n3)nc21
In short: as §1

[4] = compound: CCn1cc(-c2ccnc3[nH]c(-c4cccc(CN(C)C)c4)cc23)c(-c2ccc(NC(=O)N(C)C)cc2)n1
In short: as §1

[5] = compound: CN(C)CC(=O)Nc1ccc2[nH]c(=O)c3ccccc3c2c1
In short: as §1

rosiglitazone = compound: CN(CCOC1=CC=C(C=C1)C[C@H]2C(=O)NC(=O)S2)C3=CC=CC=N3 (racemic) [rosiglitazone]
In short: as §1

[6] = compound: CN1C2=C(C3=C1C(=O)N(N=C3)CC4=CC(=CC=C4)N)SC(=C2)S(=O)C
In short: as §1

[7] = compound: CN1CCC(CNc2ccc3ncc(-c4cccc(OC(F)(F)F)c4)n3n2)CC1
In short: as §1

saracatinib = compound: CN1CCN(CCOc2cc(OC3CCOCC3)c3c(Nc4c(Cl)ccc5c4OCO5)ncnc3c2)CC1 [saracatinib]
In short: as §1

sotrastaurin = compound: CN1CCN(c2nc(C3=C(c4c[nH]c5ccccc45)C(=O)NC3=O)c3ccccc3n2)CC1 [sotrastaurin]
In short: as §1

alvocidib = compound: CN1CC[C@H](c2c(O)cc(O)c3c(=O)cc(-c4ccccc4Cl)oc23)[C@H](O)C1 [alvocidib]
In short: as §1

Tubastatin A = compound: CN1CCc2c(c3ccccc3n2Cc2ccc(C(=O)NO)cc2)C1 [Tubastatin A]
In short: as §1

[8] = compound: CNC(=O)C1=CC=CC=C1NC2=NC(=NC=C2Cl)NC3=C(C=C(C=C3)N4CCOCC4)OC
In short: as §1

defactinib = compound: CNC(=O)c1ccc(Nc2ncc(C(F)(F)F)c(NCc3nccnc3N(C)S(C)(=O)=O)n2)cc1 [defactinib]
In short: as §1

rucaparib = compound: CNCc1ccc(-c2[nH]c3cc(F)cc4c3c2CCNC4=O)cc1 [rucaparib]
In short: as §1

[9] = compound: CNc1nc(-c2ccc3c(N)n[nH]c3c2)cc(N2C[C@@H](C(=O)NC3CCCCC3)CC[C@H]2C)n1
In short: as §1

encorafenib = compound: COC(=O)N[C@@H](C)CNc1nccc(-c2cn(C(C)C)nc2-c2cc(Cl)cc(NS(C)(=O)=O)c2F)n1 [encorafenib]
In short: as §1

[10] = compound: COC(=O)[C@H](CCSC)NC(=O)C1=C(C=C(C=C1)NC[C@H](CS)N)C2=CC=CC=C2
In short: as §1

Measured: log2 fold change

FLII (UniProt Q13045)
inactive: [1] -0.019 | volasertib -0.163 | [2] 0.048 | epoxomicin 0.001 | [3] -0.016 | [4] -0.026 | [5] -0.004 | rosiglitazone 0.026 | [6] -0.039 | [7] 0.015 | saracatinib 0 | sotrastaurin 0.009 | alvocidib -0.038 | Tubastatin A -0.025 | [8] 0.034 | defactinib -0.028 | rucaparib 0.03 | [9] -0.031 | encorafenib 0.024 | [10] 0.018

FLYWCH2 (UniProt Q96CP2)
inactive: [1] 0.026 | volasertib 0.052 | [2] -0.013 | epoxomicin 0.033 | [3] -0.019 | [4] -0.003 | [5] 0 | rosiglitazone 0.032 | [6] 0.003 | [7] 0.086 | saracatinib -0.037 | sotrastaurin 0.087 | alvocidib -0.035 | Tubastatin A -0.031 | [8] -0.079 | defactinib -0.045 | rucaparib -0.099 | [9] -0.033 | encorafenib -0.001 | [10] 0.095

FN3K (UniProt Q9H479)
inactive: [1] 0.019 | volasertib 0.03 | [2] -0.008 | epoxomicin 0.001 | [3] -0.003 | [4] -0.034 | [5] -0.014 | rosiglitazone -0.025 | [6] -0.046 | [7] 0.07 | saracatinib 0.007 | sotrastaurin 0.006 | alvocidib -0.005 | Tubastatin A -0.056 | [8] -0.057 | defactinib -0.008 | rucaparib 0.021 | [9] -0.017 | encorafenib -0.018 | [10] 0.033

FASN (UniProt P49327)
inactive: [1] -0.02 | volasertib -0.089 | [2] 0.032 | epoxomicin 0.027 | [3] -0.005 | [4] -0.065 | [5] 0.019 | rosiglitazone 0.042 | [6] -0.055 | [7] 0.002 | saracatinib -0.002 | sotrastaurin -0.06 | alvocidib -0.062 | Tubastatin A -0.006 | [8] 0.037 | defactinib -0.025 | rucaparib -0.023 | [9] 0 | encorafenib 0.037 | [10] -0.018

FAM3C (UniProt Q92520)
inactive: [1] -0.098 | volasertib -0.206 | [2] -0.013 | epoxomicin -0.065 | [3] 0.019 | [4] -0.057 | [5] -0.01 | rosiglitazone 0 | [6] -0.047 | [7] 0.096 | saracatinib 0.043 | sotrastaurin -0.108 | alvocidib -0.043 | Tubastatin A -0.073 | [8] -0.033 | defactinib -0.037 | rucaparib -0.012 | [9] -0.078 | encorafenib 0.007 | [10] 0.007

FLAD1 (UniProt Q8NFF5)
inactive: [1] 0.048 | volasertib 0.04 | [2] 0.032 | epoxomicin -0.014 | [3] -0.01 | [4] -0.115 | [5] 0.043 | rosiglitazone 0.002 | [6] -0.04 | [7] -0.007 | saracatinib 0.042 | sotrastaurin 0.092 | alvocidib -0.06 | Tubastatin A 0.036 | [8] 0.023 | defactinib -0.02 | rucaparib -0.003 | [9] -0.026 | encorafenib -0.018 | [10] 0.028

FAM8A1 (UniProt Q9UBU6)
inactive: [1] -0.049 | volasertib 0.078 | [2] 0.04 | epoxomicin 0.061 | [3] 0.037 | [4] -0.081 | [5] -0.036 | rosiglitazone 0.016 | [6] 0.023 | [7] -0.135 | saracatinib 0.034 | sotrastaurin -0.036 | alvocidib 0.054 | Tubastatin A 0.126 | [8] -0.047 | defactinib -0.062 | rucaparib 0.008 | [9] -0.048 | encorafenib 0.005 | [10] -0.019

FKBP3 (UniProt Q00688)
inactive: [1] 0.006 | volasertib 0.075 | [2] 0.03 | epoxomicin 0.037 | [4] -0.001 | [5] 0.001 | [6] -0.065 | [7] 0.015 | saracatinib -0.006 | sotrastaurin 0 | Tubastatin A 0.017 | [8] 0 | defactinib -0.024 | rucaparib -0.052 | [9] 0.01 | encorafenib 0.012 | [10] 0.033

FMC1 (UniProt Q96HJ9)
inactive: [1] 0.04 | volasertib 0.102 | [2] -0.039 | epoxomicin 0.059 | [4] 0.046 | [5] -0.057 | [6] -0.01 | [7] -0.02 | saracatinib 0.139 | sotrastaurin 0.09 | Tubastatin A 0.034 | [8] 0.113 | defactinib -0.056 | rucaparib -0.023 | [9] -0.071 | encorafenib -0.105 | [10] 0.051

FCF1 (UniProt Q9Y324)
inactive: [1] 0.095 | volasertib 0.108 | epoxomicin -0.003 | [4] 0.134 | [5] -0.041 | [6] 0.107 | [7] 0.219 | saracatinib -0.111 | sotrastaurin -0.116 | Tubastatin A 0.07 | defactinib 0.26 | rucaparib 0.187 | [9] 0.2 | encorafenib 0.121 | [10] -0.044

FASTKD1 (UniProt Q53R41)
inactive: [1] -0.023 | [2] -0.088 | epoxomicin 0.155 | [4] 0.051 | [5] 0.064 | [6] 0.072 | [7] -0.188 | saracatinib -0.118 | sotrastaurin -0.046 | Tubastatin A 0.037 | [8] 0.037 | defactinib -0.22 | rucaparib -0.093 | [9] 0.112 | encorafenib 0.026 | [10] -0.02

FCHO1 (UniProt O14526)
active: volasertib -0.768
inactive: [1] -0.186 | [2] 0.168 | epoxomicin 0.05 | [5] 0.112 | [6] 0.025 | saracatinib -0.064 | sotrastaurin -0.162 | Tubastatin A 0.007 | [8] 0.043 | defactinib -0.042 | rucaparib 0.248 | [9] 0.054 | encorafenib 0.101 | [10] 0.046

FIZ1 (UniProt Q96SL8)
inactive: [1] 0.169 | [2] 0.088 | epoxomicin -0.071 | [4] -0.125 | [5] -0.06 | [6] 0.138 | [7] 0.024 | saracatinib 0.149 | sotrastaurin 0 | defactinib 0.06 | rucaparib -0.012 | [9] -0.095 | encorafenib 0.069 | [10] 0.108

Random excerpt: two records from the list
FIZ1 (UniProt Q96SL8)
inactive: [1] 0.169 | [2] 0.088 | epoxomicin -0.071 | [4] -0.125 | [5] -0.06 | [6] 0.138 | [7] 0.024 | saracatinib 0.149 | sotrastaurin 0 | defactinib 0.06 | rucaparib -0.012 | [9] -0.095 | encorafenib 0.069 | [10] 0.108

FCHO1 (UniProt O14526)
active: volasertib -0.768
inactive: [1] -0.186 | [2] 0.168 | epoxomicin 0.05 | [5] 0.112 | [6] 0.025 | saracatinib -0.064 | sotrastaurin -0.162 | Tubastatin A 0.007 | [8] 0.043 | defactinib -0.042 | rucaparib 0.248 | [9] 0.054 | encorafenib 0.101 | [10] 0.046

(cont.)

FAM76A isoform 3 (UniProt Q8TAV0)
inactive: [1] 0.027 | volasertib 0.104 | epoxomicin -0.063 | [3] -0.079 | [4] -0.027 | [5] 0.532 | rosiglitazone 0.151 | [7] 0.022 | sotrastaurin 0.053 | Tubastatin A -0.075 | [8] 0.017 | defactinib -0.02 | rucaparib -0.021 | encorafenib -0.019 | [10] -0.093

FAM241A (UniProt Q8N8J7)
inactive: [1] -0.026 | volasertib 0.007 | [2] -0.002 | [4] 0.037 | [5] -0.093 | [6] 0.059 | [7] 0.08 | saracatinib -0.012 | Tubastatin A -0.035 | [8] 0.042 | defactinib 0.013 | rucaparib 0.006 | [9] -0.003 | encorafenib -0.009 | [10] 0.03
active: sotrastaurin -0.632

FEN1 (UniProt P39748)
inactive: [1] -0.073 | volasertib -0.037 | [2] 0.086 | epoxomicin 0.109 | [4] -0.174 | [5] 0.155 | [6] -0.057 | [7] -0.283 | saracatinib -0.087 | sotrastaurin -0.028 | Tubastatin A 0.116 | [8] -0.092 | defactinib -0.139 | rucaparib -0.128 | [9] 0.183 | encorafenib 0.054 | [10] -0.087

FAM53C (UniProt Q9NYF3)
inactive: [1] -0.074 | volasertib -0.05 | [2] -0.098 | [4] -0.146 | [7] -0.2 | sotrastaurin 0.003 | alvocidib -0.206 | Tubastatin A 0.245 | rucaparib 0.008 | encorafenib -0.033
